Laboratory results published in the supplement of paper PMC11732987, “Enantioselective OTUD7B fragment discovery through chemoproteomics screening and high-throughput optimisation” (Communications Chemistry, 2025).
The other results are listed elsewhere or left out. The data scatter; read single values as rough.

By UniProt entry, the sequences of proteins in these tests, tags left out. Where a name states a change or a piece, a line headed by the entry shows the natural chain unless it says otherwise. Residues count along the entry.
UniProt Q96DC9: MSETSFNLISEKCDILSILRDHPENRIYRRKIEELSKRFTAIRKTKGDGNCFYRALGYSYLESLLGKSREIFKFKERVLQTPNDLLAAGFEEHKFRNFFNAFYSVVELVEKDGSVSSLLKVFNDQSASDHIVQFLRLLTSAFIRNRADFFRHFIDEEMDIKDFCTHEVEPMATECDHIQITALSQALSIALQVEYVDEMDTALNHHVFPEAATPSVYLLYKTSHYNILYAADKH
UniProt Q96L73: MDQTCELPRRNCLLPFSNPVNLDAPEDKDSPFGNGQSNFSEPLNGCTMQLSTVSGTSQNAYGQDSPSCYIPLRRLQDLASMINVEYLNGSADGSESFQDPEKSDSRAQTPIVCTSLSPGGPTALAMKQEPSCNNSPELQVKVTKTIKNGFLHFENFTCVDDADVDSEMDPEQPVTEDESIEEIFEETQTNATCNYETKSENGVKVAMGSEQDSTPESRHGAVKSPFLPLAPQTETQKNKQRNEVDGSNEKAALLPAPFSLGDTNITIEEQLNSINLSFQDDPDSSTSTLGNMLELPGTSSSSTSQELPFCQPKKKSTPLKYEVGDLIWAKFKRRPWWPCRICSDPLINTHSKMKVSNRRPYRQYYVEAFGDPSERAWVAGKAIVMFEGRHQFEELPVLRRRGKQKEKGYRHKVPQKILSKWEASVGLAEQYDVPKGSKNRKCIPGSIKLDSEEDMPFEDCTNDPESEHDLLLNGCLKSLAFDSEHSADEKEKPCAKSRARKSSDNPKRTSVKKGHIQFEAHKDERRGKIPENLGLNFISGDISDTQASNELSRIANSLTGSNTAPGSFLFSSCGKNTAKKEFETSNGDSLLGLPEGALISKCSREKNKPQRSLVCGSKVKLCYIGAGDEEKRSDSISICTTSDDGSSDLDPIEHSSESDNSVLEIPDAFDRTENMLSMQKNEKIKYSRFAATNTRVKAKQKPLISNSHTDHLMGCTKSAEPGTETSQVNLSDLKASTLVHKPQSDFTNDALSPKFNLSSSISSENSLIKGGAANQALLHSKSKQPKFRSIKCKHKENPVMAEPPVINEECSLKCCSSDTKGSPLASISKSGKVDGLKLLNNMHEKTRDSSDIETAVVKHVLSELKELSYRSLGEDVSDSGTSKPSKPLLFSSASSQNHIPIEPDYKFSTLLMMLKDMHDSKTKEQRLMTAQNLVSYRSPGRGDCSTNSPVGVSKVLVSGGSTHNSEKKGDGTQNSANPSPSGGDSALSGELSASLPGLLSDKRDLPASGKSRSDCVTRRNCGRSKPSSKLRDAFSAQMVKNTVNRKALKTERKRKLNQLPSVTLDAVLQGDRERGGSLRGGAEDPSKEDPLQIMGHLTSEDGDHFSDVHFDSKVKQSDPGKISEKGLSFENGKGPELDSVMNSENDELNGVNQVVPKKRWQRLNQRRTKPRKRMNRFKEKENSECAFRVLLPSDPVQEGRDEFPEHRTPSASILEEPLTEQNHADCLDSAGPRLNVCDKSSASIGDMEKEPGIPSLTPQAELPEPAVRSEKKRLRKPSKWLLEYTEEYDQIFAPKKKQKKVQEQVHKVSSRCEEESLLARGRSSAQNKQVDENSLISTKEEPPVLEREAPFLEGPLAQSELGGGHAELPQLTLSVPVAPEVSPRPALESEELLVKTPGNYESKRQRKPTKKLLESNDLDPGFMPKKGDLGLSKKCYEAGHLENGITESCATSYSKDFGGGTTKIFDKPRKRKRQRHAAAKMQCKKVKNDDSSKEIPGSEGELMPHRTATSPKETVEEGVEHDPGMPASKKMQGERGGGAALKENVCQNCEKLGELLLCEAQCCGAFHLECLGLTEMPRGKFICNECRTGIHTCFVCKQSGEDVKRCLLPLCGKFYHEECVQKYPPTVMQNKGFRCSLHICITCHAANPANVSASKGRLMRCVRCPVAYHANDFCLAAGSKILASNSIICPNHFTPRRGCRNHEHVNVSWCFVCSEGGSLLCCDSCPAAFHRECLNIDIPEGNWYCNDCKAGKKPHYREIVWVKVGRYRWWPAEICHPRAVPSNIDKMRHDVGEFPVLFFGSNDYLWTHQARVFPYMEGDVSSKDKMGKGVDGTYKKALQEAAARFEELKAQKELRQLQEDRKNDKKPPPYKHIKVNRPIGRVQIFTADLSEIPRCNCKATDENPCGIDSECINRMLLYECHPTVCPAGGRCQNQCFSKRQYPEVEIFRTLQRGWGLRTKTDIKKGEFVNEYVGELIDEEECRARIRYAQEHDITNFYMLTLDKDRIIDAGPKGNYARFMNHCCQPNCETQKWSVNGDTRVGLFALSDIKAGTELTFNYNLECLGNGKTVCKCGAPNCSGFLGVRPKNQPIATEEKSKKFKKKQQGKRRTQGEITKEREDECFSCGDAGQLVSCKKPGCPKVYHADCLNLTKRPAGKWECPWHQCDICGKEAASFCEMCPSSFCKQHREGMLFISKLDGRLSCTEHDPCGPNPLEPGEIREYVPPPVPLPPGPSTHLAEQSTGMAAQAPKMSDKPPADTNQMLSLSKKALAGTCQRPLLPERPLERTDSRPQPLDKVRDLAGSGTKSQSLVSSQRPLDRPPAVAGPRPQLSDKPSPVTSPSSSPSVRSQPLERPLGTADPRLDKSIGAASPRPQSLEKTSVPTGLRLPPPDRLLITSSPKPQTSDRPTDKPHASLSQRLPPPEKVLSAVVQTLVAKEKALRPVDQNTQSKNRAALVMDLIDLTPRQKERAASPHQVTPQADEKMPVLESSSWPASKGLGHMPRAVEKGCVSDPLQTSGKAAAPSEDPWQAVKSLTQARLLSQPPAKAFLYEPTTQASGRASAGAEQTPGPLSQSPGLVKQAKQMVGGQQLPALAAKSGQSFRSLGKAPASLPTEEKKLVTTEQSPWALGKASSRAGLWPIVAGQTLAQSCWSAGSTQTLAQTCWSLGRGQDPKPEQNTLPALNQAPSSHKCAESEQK
UniProt Q9BW27: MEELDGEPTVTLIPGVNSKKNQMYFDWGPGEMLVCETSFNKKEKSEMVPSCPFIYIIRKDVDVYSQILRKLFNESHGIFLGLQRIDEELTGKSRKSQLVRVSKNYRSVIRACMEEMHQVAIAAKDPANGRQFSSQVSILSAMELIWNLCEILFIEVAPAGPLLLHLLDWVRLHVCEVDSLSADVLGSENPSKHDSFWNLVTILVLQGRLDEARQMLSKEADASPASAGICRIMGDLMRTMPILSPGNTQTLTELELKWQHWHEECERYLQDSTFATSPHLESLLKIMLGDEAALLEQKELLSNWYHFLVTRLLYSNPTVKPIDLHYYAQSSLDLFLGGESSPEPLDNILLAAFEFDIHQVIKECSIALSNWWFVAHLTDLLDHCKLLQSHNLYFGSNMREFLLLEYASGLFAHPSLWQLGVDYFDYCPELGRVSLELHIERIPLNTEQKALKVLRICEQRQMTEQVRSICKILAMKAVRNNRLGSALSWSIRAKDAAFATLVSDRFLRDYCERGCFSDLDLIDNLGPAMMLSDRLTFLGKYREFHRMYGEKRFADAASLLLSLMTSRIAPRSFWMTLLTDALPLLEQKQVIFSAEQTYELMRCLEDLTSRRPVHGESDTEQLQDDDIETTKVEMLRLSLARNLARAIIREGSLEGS
UniProt Q9NZT2: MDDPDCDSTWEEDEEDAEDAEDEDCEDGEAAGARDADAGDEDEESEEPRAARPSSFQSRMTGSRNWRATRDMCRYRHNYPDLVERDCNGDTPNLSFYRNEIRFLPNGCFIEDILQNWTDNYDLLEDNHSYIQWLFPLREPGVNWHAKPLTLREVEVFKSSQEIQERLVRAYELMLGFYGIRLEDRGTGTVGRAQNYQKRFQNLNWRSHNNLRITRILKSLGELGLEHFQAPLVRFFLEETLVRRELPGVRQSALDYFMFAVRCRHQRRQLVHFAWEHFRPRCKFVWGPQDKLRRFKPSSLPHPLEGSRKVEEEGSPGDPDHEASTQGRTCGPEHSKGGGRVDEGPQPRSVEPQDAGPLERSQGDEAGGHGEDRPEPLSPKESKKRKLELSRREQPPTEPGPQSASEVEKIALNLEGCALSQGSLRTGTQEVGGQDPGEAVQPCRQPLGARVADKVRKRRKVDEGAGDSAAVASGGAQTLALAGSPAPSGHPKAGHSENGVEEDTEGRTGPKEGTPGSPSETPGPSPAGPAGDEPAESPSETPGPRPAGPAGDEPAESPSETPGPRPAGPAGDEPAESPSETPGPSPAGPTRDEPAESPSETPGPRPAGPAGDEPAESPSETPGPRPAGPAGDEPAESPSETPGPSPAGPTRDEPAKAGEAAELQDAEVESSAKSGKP
UniProt O43847: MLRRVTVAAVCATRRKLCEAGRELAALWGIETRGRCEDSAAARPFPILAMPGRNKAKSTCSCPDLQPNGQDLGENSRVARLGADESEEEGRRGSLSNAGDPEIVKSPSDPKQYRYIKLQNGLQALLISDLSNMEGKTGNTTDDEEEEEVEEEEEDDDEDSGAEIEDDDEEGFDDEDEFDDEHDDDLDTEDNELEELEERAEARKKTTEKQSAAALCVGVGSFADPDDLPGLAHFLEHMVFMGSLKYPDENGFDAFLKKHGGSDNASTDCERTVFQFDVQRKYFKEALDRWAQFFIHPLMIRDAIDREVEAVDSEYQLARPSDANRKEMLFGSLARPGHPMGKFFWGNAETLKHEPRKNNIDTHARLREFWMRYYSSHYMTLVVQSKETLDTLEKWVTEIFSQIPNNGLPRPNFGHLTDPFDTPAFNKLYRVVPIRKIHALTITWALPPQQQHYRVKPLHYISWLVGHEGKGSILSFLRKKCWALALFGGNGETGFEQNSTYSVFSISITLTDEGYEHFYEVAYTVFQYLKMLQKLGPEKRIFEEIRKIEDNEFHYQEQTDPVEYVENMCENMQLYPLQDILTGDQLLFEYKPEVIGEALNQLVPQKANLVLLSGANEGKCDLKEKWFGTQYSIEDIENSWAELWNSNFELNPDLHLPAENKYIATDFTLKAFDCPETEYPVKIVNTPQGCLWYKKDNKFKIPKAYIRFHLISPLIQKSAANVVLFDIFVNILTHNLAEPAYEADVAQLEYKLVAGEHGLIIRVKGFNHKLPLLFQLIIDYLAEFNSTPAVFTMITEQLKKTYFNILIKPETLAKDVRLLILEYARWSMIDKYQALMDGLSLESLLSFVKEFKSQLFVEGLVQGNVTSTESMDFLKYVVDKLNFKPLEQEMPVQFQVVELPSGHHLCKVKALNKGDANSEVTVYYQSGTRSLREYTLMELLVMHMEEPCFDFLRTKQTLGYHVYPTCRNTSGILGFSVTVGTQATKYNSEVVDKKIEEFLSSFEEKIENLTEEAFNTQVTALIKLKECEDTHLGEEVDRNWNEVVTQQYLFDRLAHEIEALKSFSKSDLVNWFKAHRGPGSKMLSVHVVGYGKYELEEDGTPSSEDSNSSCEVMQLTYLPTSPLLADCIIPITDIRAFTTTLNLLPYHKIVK
UniProt Q969R2: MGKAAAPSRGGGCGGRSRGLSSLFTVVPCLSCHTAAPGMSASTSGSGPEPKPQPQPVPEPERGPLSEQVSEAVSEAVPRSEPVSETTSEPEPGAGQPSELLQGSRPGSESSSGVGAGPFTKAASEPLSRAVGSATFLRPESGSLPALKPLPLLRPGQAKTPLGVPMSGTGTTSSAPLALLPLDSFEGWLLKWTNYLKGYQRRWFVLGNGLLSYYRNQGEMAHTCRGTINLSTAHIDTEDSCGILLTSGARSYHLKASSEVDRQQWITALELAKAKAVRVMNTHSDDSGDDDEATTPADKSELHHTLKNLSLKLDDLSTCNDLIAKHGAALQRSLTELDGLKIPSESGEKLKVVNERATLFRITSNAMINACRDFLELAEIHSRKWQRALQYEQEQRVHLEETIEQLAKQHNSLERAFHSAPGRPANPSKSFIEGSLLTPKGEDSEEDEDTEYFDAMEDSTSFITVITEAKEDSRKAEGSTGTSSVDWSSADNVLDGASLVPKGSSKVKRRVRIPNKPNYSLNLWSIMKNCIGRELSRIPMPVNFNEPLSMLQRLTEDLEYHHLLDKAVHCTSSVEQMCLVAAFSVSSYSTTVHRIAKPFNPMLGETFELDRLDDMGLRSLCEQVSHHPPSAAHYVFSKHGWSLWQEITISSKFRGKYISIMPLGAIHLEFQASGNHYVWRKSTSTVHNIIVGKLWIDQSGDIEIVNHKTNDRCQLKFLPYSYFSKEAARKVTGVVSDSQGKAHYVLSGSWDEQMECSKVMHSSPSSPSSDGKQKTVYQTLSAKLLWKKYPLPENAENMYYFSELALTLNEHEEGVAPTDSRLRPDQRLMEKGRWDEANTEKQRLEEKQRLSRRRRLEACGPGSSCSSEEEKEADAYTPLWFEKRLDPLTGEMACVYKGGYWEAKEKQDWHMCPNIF
UniProt P10588, 307-330: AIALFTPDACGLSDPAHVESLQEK

Compound: ClCC(=O)N[C@H]1CCCc2ccccc12
Assay: log2 mean competition ratio of IA-DTB cysteine labelling (DMSO/compound) (log2 ratio); higher = stronger cysteine engagement by compound
Details: treatment time: 4 h, cell line lysate: HEK293T
Protocol: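 IA-DTB competitive cysteine chemoproteomics in HEK293T RIPA lysate. Lysates were treated with compound 29 or 30 at 50 or 200 µM for 4 h, then IA-DTB (500 µM, 1 h), trypsin-digested, NeutrAvidin-enriched and analysed by diaPASEF. Competition ratio = intensity DMSO / intensity compound (n=4 treated, n=64 DMSO); binding: mean log2 CR ≥ 1 and p ≤ 0.05 plus QC filters. Target is the cysteine site.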

Target	log2 mean competition ratio (50 µM)	log2 mean competition ratio (200 µM)
NR2F2 C314 (UniProt P24468)	0.183	8.77e-05
OGA C878 (UniProt O60502)	-0.171	-0.146
OFD1 C766 (UniProt O75665)	0.493	-0.118
NT5DC1 C197 (UniProt Q5TFE4)	-0.123	-0.963
OTUB2 C13 (UniProt Q96DC9)	0.189	-0.0425
NSUN6 C242 (UniProt Q8TEA1)	-0.0926	0.028
OBI1 C105 (UniProt Q5W0B1)	-0.374	-0.181
NSD1 C2508 (UniProt Q96L73)	-0.0155	-0.0496
NUP153 C1065 (UniProt P49790)	0.636	-0.0223
NUP85 C265 (UniProt Q9BW27)	-0.109	-0.226
OGFR C87 (UniProt Q9NZT2)	0.585	0.201
NRDC C674 (UniProt O43847)	0.0797	-0.128
OSBP2 C319 (UniProt Q969R2)	-0.386	0.0669
NPLOC4 C130	-0.217	-0.00353
OBI1 C555 (UniProt Q5W0B1)	-0.0317	-0.0812
NRBP1 C307 (UniProt Q9UHY1)	-0.243	-0.336
NOTCH2 C1357 (UniProt Q04721)	0.168	0.405
NR2F6 C316 (UniProt P10588)	0.787	0.0205
NSD2 C38 (UniProt O96028)	0.0961	0.268
NSUN2 C184 (UniProt Q08J23)	-0.19	0.164

2 entries picked at random from those above, as already listed:
Target	log2 mean competition ratio (50 µM)	log2 mean competition ratio (200 µM)
NRBP1 C307 (UniProt Q9UHY1)	-0.243	-0.336
NR2F6 C316 (UniProt P10588)	0.787	0.0205
